Data published in PubChem BioAssay AID540256 (National Center for Advancing Translational Sciences (NCATS), 2011).
Values joined by “and” are separate entries in the source; they are usually repeats but may differ in a detail not shown here. Equal values may be shown once. In all, about 300,000 compounds went through this assay and about 3,700 (1.2%) were called active. The shares of active, inactive and inconclusive entries below differ from those in the screen. The call rests on the fitted dose curve; tested in HEK293 cells. Potencies beside an inconclusive call are fits to weak or partial responses and may not hold up.

Experiment: qHTS for Inhibitors of binding or entry into cells for Lassa Virus; further: nearly all actives have a fitted effect of over 50% in size
Details: Lassa virus pseudotype entry inhibition, cell reporter; series mostly up to 37.9 µM
Potency means the concentration at half of the fitted maximal effect.

SMILES	Potency
Cc1cc(C)c2sc(NNC(=O)c3ccc(S(=O)(=O)N4CCc5ccccc5C4)cc3)nc2c1	active: 11.6 µM
CCOC(=O)C1=C(C)Nc2ccccc2N=C1NC(=O)/C=C/c1ccc(OC)cc1OC	inconclusive: 15.8 µM [inhibitor, single point]
CNC(=O)NC(=O)C(OC(=O)Cc1cccc(C(F)(F)F)c1)c1ccccc1 (stereo not drawn)	inconclusive: 12.6 µM [activator, single point]
COC(=O)C1=C(C)N(c2ccccc2)C(=S)NC1c1ccccc1C(F)(F)F (stereo not drawn)	inconclusive: 14.6 µM [inhibitor, partial curve, poor fit]
Cc1ccc(C(=O)Nc2ccccc2NC(=O)c2ccc(C)o2)o1	inactive
CC(C)N1CCc2c(sc(NC(=O)c3cc(-c4cccs4)nc4ccccc34)c2C(N)=O)C1	inconclusive: 32.6 µM [inhibitor, single point]
CCOc1ccc(CN2CCN(C3CCC3)CC2CCO)cc1 (stereo not drawn)	inactive
CC1CC(NC2=NCCS2)CC(C)(C)C1 (stereo not drawn)	inactive
CC(CC(=O)Nc1ccc(Br)cc1F)S(=O)(=O)c1ccc2c(c1)NC(=O)CO2 (stereo not drawn)	inconclusive: 11.2 µM [inhibitor, single point]
CCOc1ccc(-c2[nH]ncc2Oc2cccc(OC)c2)c(O)c1	inconclusive: 7.94 µM [inhibitor, partial curve]
Cc1c(NC(=O)Nc2ccc3c(c2)OCO3)c(=O)n(-c2ccccc2)n1C	inconclusive: 18.3 µM [activator, partial curve, poor fit]
COc1cc(C(=O)NCC2CCCO2)cc(OC)c1OC (stereo not drawn)	inconclusive: 0.116 µM [inhibitor, full curve, poor fit]
CCCC(=Nc1ccc(N)cc1)C1=C(O)C(C(=O)OC)C(C)(C)CC1=O (stereo not drawn)	inconclusive: 3.26 µM [activator, single point]
Cn1c(SCc2nc(-c3ccc(Cl)cc3)no2)nnc1-c1cccs1	inactive
O=S(=O)(c1cc(Cl)ccc1Br)N1CCCCC1	inconclusive: 0.092 µM [activator, full curve, poor fit]
CC1CCc2c(sc3nc(C(C)(C)C)nc(N4CCN(C(=O)CCl)CC4)c23)C1 (stereo not drawn)	inconclusive: 6.31 µM [inhibitor, full curve, poor fit]
COc1ccc(CNCCC2(O)CC(C)N(C)CC2C)cc1OC (stereo not drawn)	inactive
CC(C)(C)OC(=O)C1=NOC2(C=CC(=O)C=C2)C1	inconclusive: 1.19 µM [inhibitor, full curve] and inconclusive: 22.3 µM [inhibitor, partial curve, poor fit]
COc1ccc2sc(N(CCCN(C)C)C(=O)c3ccc(S(=O)(=O)N(C)C4CCCCC4)cc3)nc2c1	inconclusive: 35.5 µM [inhibitor, single point]
CC1CCC(NC(=O)CCN2C(=O)C3C4C=CC(C4)C3C2=O)CC1 (stereo not drawn)	inconclusive: 7.94 µM [activator, partial curve, poor fit]
O=C(Nc1nc2ccc(F)cc2s1)c1nc(S(=O)(=O)Cc2ccccc2)ncc1Cl	active: 4.47 µM
Nc1ccc2ncccc2c1	inactive
CCC(C)NC(=O)C(=O)Nc1c2c(nn1-c1ccccc1)CS(=O)(=O)C2 (stereo not drawn)	inactive

Quoted at random: two records from the list.
SMILES	Potency
Cc1c(NC(=O)Nc2ccc3c(c2)OCO3)c(=O)n(-c2ccccc2)n1C	inconclusive: 18.3 µM [activator, partial curve, poor fit]
Nc1ccc2ncccc2c1	inactive

Following part.

SMILES	Potency
O=C(/C=C/c1ccc(S(=O)(=O)N2CCOCC2)cc1)Nc1ccc(F)c(F)c1F	inconclusive: 12.6 µM [inhibitor, single point]
O=C(CSc1nc2c(sc3ccccc32)c(=O)n1CCO)NCC1CCCO1 (stereo not drawn)	inconclusive: 6.51 µM [inhibitor, single point]
CC(C)CCNC(=O)C1CCC(Cn2c(=O)c3sccc3n(CC(=O)NC(C)C)c2=O)CC1 (stereo not drawn)	inactive
O=C(c1ccc(S(=O)(=O)c2ccccc2Cl)c([N+](=O)[O-])c1)N1CCN(Cc2ccccc2)CC1	inconclusive: 11.2 µM [inhibitor, partial curve]
O=C(COc1ccccc1)Nc1cccc(S(=O)(=O)N2CCCC2)c1	inconclusive: 0.158 µM [inhibitor, partial curve, poor fit]
Cc1ccc2nc(NC(=O)CSCC(=O)OCC(=O)c3ccccc3)sc2c1	active: 5.8 µM
c1ccc(CCCc2nc(-c3ccccn3)no2)cc1	inactive
O=C(c1ccc(-n2c(SCc3cccc(F)c3)nc3ccccc3c2=O)cc1)N1CCOCC1	inactive
N#Cc1c(NC(=O)c2cc3nc(-c4ccc(Br)cc4)cc(C(F)(F)F)n3n2)sc2c1CCCC2	inactive
CCn1ccc(C(=O)Oc2ccc(Cl)cc2)n1	inconclusive: 0.58 µM [inhibitor, partial curve, poor fit]
Cc1ccc(CN(Cc2ccccn2)C(=O)Nc2c(F)cccc2F)cc1	inactive
CCN1C[C@@]2(COC)C3[C@@H](OC)C4[C@@H]1C3([C@@H]1C[C@]3(O)[C@H](OC(=O)c5ccccc5)[C@@H]1[C@]4(OC(C)=O)[C@@H](O)[C@@H]3OC)[C@H](OC)C[C@H]2O	inconclusive: 3.26 µM [activator, single point]
O=C(c1noc2c1CCCC2)N1CCCC(N2CCN(c3ccccc3F)CC2)C1 (stereo not drawn)	inactive
O=C(COC(=O)C1CC1)Nc1ccc(N=Nc2ccccc2)cc1	inconclusive: 2.82 µM [activator, partial curve, poor fit]
CCCN1C=CC(=C2C(=O)c3ccccc3C2=O)C=C1	active: 0.206 µM
CN(C)c1ccc(/C=N/NC(=O)CSc2ccccn2)cc1	inconclusive: 10 µM [inhibitor, partial curve, poor fit]
CC(C)Cn1c(SCC(=O)c2ccc(Cl)s2)nnc1-c1ccco1	inconclusive: 32.6 µM [inhibitor, single point]
COc1ccccc1N1CCN(C(CNC(=O)C(=O)NCCCN(C)C)c2cccnc2)CC1 (stereo not drawn)	inactive
O=C(c1ccc(F)cc1)C1CCN(C(=O)Nc2ccc(F)cc2F)CC1	inconclusive: 6.31 µM [activator, partial curve, poor fit]
COc1ccc(/C=N/NC(=O)c2cc(C(C)(C)C)[nH]n2)cc1COc1ccc(F)cc1F	inconclusive: 35.5 µM [inhibitor, single point]
O=C(COC(=O)c1ccccc1N1C(=O)C2C3CCC(C3)C2C1=O)c1ccccc1 (stereo not drawn)	inactive
Cc1ccc(-n2c(SCC(=O)OC(C)C)nnc2-c2ccco2)cc1	inconclusive: 35.5 µM [inhibitor, single point]
CCOC(=O)C1=CSC2=NS(=O)(=O)CCN12	inactive

SMILES	Potency
CCc1ccc(NC(=O)CSc2nc3n[nH]c(C)c3c(=N)n2-c2ccccc2C)cc1	inconclusive: 22.4 µM [inhibitor, single point]
COC(CNC(=O)c1ccc(N2CCc3ccccc32)c([N+](=O)[O-])c1)OC	inconclusive: 5.01 µM [inhibitor, partial curve, poor fit]
CCN(CC)c1ccc(NC(=O)COC(=O)c2cccs2)cc1	inactive
COc1ccc(NC(=O)CSc2n[nH]c(CNc3cccc(C)c3)n2)cc1	inactive
CCCC(NS(=O)(=O)c1ccc(-c2ccc(=O)[nH]n2)s1)c1cccs1 (stereo not drawn)	inconclusive: 35.5 µM [inhibitor, single point]
CCCSc1ccc(-c2nn(-c3ccccc3)cc2/C=C(/C#N)C(=O)NCCCOC)cc1	inactive
CC1Oc2ccccc2N(CC(=O)N2CCCCC2)C1=O (stereo not drawn)	inactive
CCOC(=O)c1c(-c2ccccc2)csc1NC(=O)/C(C#N)=C/c1ccc(OC)c(OC)c1	inactive
COc1ccc(C(=O)N2CCN(c3ccccc3)CC2)cc1S(=O)(=O)N1CCCC1	inconclusive: 5.62 µM [activator, single point]
COC(=O)c1ccc(COc2cccc3c2OC(C)(C)C3)cc1	inactive
N#Cc1c(NC(=O)c2ccccc2)sc2c1CCCCC2	inconclusive: 11.2 µM [inhibitor, single point]
CCN(CC)c1ccc(C(=O)OCC(=O)Nc2ccccc2-c2ccccc2)cc1	inconclusive: 18.4 µM [inhibitor, single point]
O=c1[nH]c(N/N=C/c2ccccc2)nc2ccccc12	inconclusive: 1.83 µM [activator, partial curve, poor fit]
Clc1ccccc1N1CCN(Cc2ccc(Br)o2)CC1	inconclusive: 1 µM [inhibitor, full curve, poor fit]
CCOC(=O)c1c(NC(=O)C2=C(C)NC(=S)NC2c2ccc(F)cc2F)sc(C)c1C (stereo not drawn)	inconclusive: 20 µM [inhibitor, partial curve, poor fit]
Cc1ccc(-c2n[nH]c(=S)n2/N=C/c2cc3c(cc2[N+](=O)[O-])OCO3)cc1	inconclusive: 2.06 µM [inhibitor, full curve, poor fit]
Cn1c(N)c(C(=O)COC(=O)/C=C/c2ccccc2)c(=O)n(C)c1=O	inactive
CCc1nc(SCC(=O)Nc2ccccc2OC)c2c(C)c(C)sc2n1	inconclusive: 20 µM [inhibitor, single point]
CC1(C)CC(C#N)(N2CCOCC2)CCO1 (stereo not drawn)	inactive
Cc1cc(NC(=O)C2CC2)ccc1NC(=O)c1cccs1	inconclusive: 35.5 µM [activator, single point]
COCc1cc(C)nc2sc3c(c12)NC(c1ccc(O)cc1)N(c1ccc(OC)cc1)C3=O (stereo not drawn)	inconclusive: 35.5 µM [inhibitor, single point]
O=C1Nc2c(Br)cc(Br)cc2C1(O)N1CCOCC1 (stereo not drawn)	inconclusive: 14.6 µM [inhibitor, partial curve, poor fit]

Structures from the list above that contain a nitro group on carbon (three):
SMILES	Potency
O=C(c1ccc(S(=O)(=O)c2ccccc2Cl)c([N+](=O)[O-])c1)N1CCN(Cc2ccccc2)CC1	inconclusive: 11.2 µM [inhibitor, partial curve]
COC(CNC(=O)c1ccc(N2CCc3ccccc32)c([N+](=O)[O-])c1)OC	inconclusive: 5.01 µM [inhibitor, partial curve, poor fit]
Cc1ccc(-c2n[nH]c(=S)n2/N=C/c2cc3c(cc2[N+](=O)[O-])OCO3)cc1	inconclusive: 2.06 µM [inhibitor, full curve, poor fit]
